From the supplement of paper PMC12024529 come the findings set out here.

Structures can show the parent of a compound that is named as a salt. The list shows a part of the results. Part of the spread comes from offsets between plates or batches.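 The cells are HEK293 lines stably expressing B-domain-deleted factor VIII fused to Gaussia luciferase, either wild type or a misfolding-prone missense mutant. Each score is mean luminescence from triplicate wells minus the DMSO mean, divided by the DMSO standard deviation; a score of 2 or more counts as a hit, and low scores may reflect lower secretion or poorer cell viability.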

One experiment relates to HEK293 WT BDD-FVIII-Gluc. As to the kind of experiment: secreted FVIII-Gluc luciferase Z-score vs DMSO control; higher = more FVIII-Gluc secretion. The following applies: 5 µM; 24 h.
Experiment [1] has as its system HEK293 p.N1941S BDD-FVIII-Gluc. The description is as above. Conditions: 5 µM; 24 h.

As to `CCCc1cc(=O)[nH]c(=S)[nH]1` [Propylthiouracil], the “secreted FVIII-Gluc luciferase Z-score” value was inactive: -1.04 in the experiment with HEK293 WT BDD-FVIII-Gluc and inactive: -3.26 in experiment [1].
On the same counts, the results for `CC(C(=O)O)c1cccc(Oc2ccccc2)c1` (stereo not given) [Fenoprofen calcium] are inactive: 0.535 and inactive: 0.391.
The corresponding values for `CC1CCc2c(N3CCC(O)CC3)c(F)cc3c(=O)c(C(=O)O)cn1c23` (stereo not given) [Nadifloxacin] are inactive: 0.205 and inactive: 0.000769.
On the same counts, the results for `CC(C)NCC(O)COc1cccc2ccccc12` (stereo not given) [Propranolol HCl] are inactive: -1.84 and inactive: -1.24.
In the case of `Cc1ncc([N+](=O)[O-])n1CCO` [Metronidazole (Flagyl)], the figures for the “secreted FVIII-Gluc luciferase Z-score” value (in the experiment on HEK293 WT BDD-FVIII-Gluc; in experiment [1]) were inactive: -0.209 and inactive: 0.933, respectively.
On the same counts, the results for `CCOC(=O)C1=C(C)NC(C)=C(C(=O)OC)C1c1cccc([N+](=O)[O-])c1` (stereo not given) [Nitrendipine] are inactive: -0.863 and inactive: -1.11.
The corresponding values for `CC1=C(C(=O)O)N2C(=O)[C@@H](NC(=O)[C@H](N)c3ccccc3)[C@H]2SC1` [Cephalexin (Cefalexin)] are inactive: -2.97 and inactive: 0.231.
On the same counts, the results for `C[C@H]1[C@H](NC(=O)/C(=N\OC(C)(C)C(=O)O)c2csc(N)n2)C(=O)N1S(=O)(=O)O` [Aztreonam (Azactam, Cayston)] are inactive: -4.3 and inactive: -0.307.
Take `O=C(Nc1cccc2c(=O)cc(-c3nnn[nH]3)oc12)c1ccc(OCCCCc2ccccc2)cc1` [Pranlukast]: the “secreted FVIII-Gluc luciferase Z-score” value in the experiment with HEK293 WT BDD-FVIII-Gluc is inactive: 0.81; in experiment [1], inactive: 0.854.
As for `Cc1[nH]c(=O)c(C#N)cc1-c1ccncc1` [Milrinone (Primacor)], the “secreted FVIII-Gluc luciferase Z-score” value was active: 2.64 in the experiment on HEK293 WT BDD-FVIII-Gluc and inactive: -1.34 in experiment [1].
